In article PMC5800298:
No constants are given. Whether binding was seen depends on the method and setting. For some of these results: In cells and extracts the contact can be indirect. For some of these results: Sequences can lack the tags named with a protein. Each block holds one molecule with its values, some of them ahead of it.

What was measured:
PmDAM6 (Prunus mume) = molecular target: T1, PmDAM6 (Prunus mume) (UniProt B9A1S9); assay: two-hybrid; yeast two-hybrid; full-length PmDAMs in pGBKT7 (bait) and pGADT7 (prey); each interaction screened in triplicate; baits without auto-activation or toxicity
T1 sequence: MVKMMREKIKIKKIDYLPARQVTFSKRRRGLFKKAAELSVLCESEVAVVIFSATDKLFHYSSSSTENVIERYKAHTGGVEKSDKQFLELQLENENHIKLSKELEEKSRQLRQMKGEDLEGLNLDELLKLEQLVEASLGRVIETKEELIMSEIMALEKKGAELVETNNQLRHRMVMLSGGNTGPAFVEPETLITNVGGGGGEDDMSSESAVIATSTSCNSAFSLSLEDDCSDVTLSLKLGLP

PmDAM5 (Prunus mume) = molecular target: T2, PmDAM5 (Prunus mume) (UniProt G1UE18); assay: as above
T2 sequence: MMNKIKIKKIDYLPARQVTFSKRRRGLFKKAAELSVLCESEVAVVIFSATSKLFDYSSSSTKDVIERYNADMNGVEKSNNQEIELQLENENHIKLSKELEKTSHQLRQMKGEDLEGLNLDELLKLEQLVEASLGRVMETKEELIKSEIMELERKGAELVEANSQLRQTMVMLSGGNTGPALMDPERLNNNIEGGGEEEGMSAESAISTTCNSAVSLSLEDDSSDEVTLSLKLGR

[1] = molecular target: T3, PmDAM6-YFP^N / PmDAM6-YFP^C (Prunus mume) (UniProt B9A1S9); assay: split reporter; BiFC with YFP^N and YFP^C fusions co-expressed in N. benthamiana leaves by agroinfiltration; confocal microscopy 2 days after infiltration, YFP excited at 514 nm
T3 sequence: T1 sequence

[2] = molecular target: T4, PmDAM5-YFP^N / PmDAM5-YFP^C (Prunus mume) (UniProt G1UE18); assay: as above
T4 sequence: T2 sequence

PmDAM4 (Prunus mume) = assay: two-hybrid; yeast two-hybrid; full-length PmDAMs in pGBKT7 (bait) and pGADT7 (prey); each interaction screened in triplicate; baits without auto-activation or toxicity
[3] = molecular target: PmDAM4-YFP^N / PmDAM4-YFP^C (Prunus mume); assay: split reporter; BiFC with YFP^N and YFP^C fusions co-expressed in N. benthamiana leaves by agroinfiltration; confocal microscopy 2 days after infiltration, YFP excited at 514 nm

Molecule: PmDAM4 (Prunus mume)
binding (PmDAM6 (Prunus mume)): no binding | binding (PmDAM5 (Prunus mume)): no binding

B1: PmDAM3 (protein, UniProt G1UE21 1-235)
chain: MMRKKIKIKKIDCLPARQVTFSKRRRGIFKKAAELSVLCESKVAVVIFSATGKLFDYSSSSIKDVIESYKAHKNGVKKSDEPSVELQLENENHIGLSKELEEKSHQLRQQMKAEDLEELNFDELQKLEQLVDTSLSRVIETKEELRMSEIMALERKGAELVEANNQLKQTVMLSGGNTGPTLMDPERLNDNVGGGGEEEGMSSESAISTTCNSALSLSLGDDSDDVTLSLELGLP
binding (PmDAM4 (Prunus mume)): no binding

B3: PmDAM1-YFP^N / PmDAM1-YFP^C (protein, UniProt G1UE19 1-235)
chain: MKMMREKIKIKKIDNLPARQVTFSKRRRGIFKKAAELSVLCESEVAVVIFSATGKLFDYSSSSMKDVIERYQVHINGGEKFNERSIELQPEYENHIRLSKELKEKSRQLRQMKGEDLEELNFDELQKLEQLVDASLGRVIETKDERIMSEIMALERKRAELVKANKQLRQRMLFRGNIGPELMKPERLNNNFGGGGEEEGMSSESATSTTCNSAPSLSLEDDSDDVTLSLKLGLP
binding [3]: no binding

B4: PmDAM1 (protein, UniProt G1UE19 1-235)
chain: B3 chain
binding (PmDAM4 (Prunus mume)): no binding

B6: PmDAM2 (protein, UniProt G1UE20 1-240)
chain: MVKTMRKKIKIKKIDYLPARQVTFSKRRRGIFKKAEELSVLCESEVAVVIFSATGKLFDYSSSSTKNVVERYKAHTNGVEKSDEPSVELQLEIENQIRLNKELAEKSRQLRQMRGEDLEKLNIDELQKLEQLVDASLGRVIETKEELIMSEIMALERKGAELVEANNQLRQRMVMLSRGNIGPGLTEPERFINNIGDGGEEGMSSESATNATISSCSSGLSLSLEDDCSDVTLALKLGLP
binding (PmDAM4 (Prunus mume)): no binding

Other lines, results leading:

binding [1]: no binding | binding [2]: no binding
Molecule: PmDAM4-YFP^N / PmDAM4-YFP^C (Prunus mume)

binding [3]: no binding
B2: PmDAM3-YFP^N / PmDAM3-YFP^C (protein, UniProt G1UE21 1-235)
chain: B1 chain

binding [3]: no binding
B5: PmDAM2-YFP^N / PmDAM2-YFP^C (protein, UniProt G1UE20 1-240)
chain: B6 chain
